Source: patent US20040014721A1, “Method for using tethered bis(polyhydroxyphenyls) and O-alkyl derivatives thereof in treating inflammatory conditions of the central nervous system” (Oklahoma Medical Research Foundation, priority 2002, published 2004)

System: EOC-20 cells
Details: Table III; ratio of MTT LD50 to nitrite IC50
Protocol: Lower IC50 values indicate improved efficacy. FIG. 2 illustrates the principle of the measurement using NDGA as an example test agent. In order to determine viability, cell culture medium was replaced with phenol-free DMEM (Gibco) containing 20 μL/mL of MTT viability reagent (Promega). […] Control cells were taken to indicate 100% viability and intermediate values of MTT reduction were scaled to percentage of control. For each compound, an LD50 value was determined by extrapolation through sublethal concentrations. This value represents the concentration that reduced the MTT viability parameter by 50%.

| Compound | LD50/IC50 |
| --- | --- |
| O=c1c(O)c(-c2ccccc2)oc2ccccc12 [3-OH-flavone] | 1.79 |
| O=C(/C=C/c1ccc(O)c(O)c1)c1ccc(O)cc1O [butein (2′,4′,3,4-tetrahydroxychalcone), 2′,4′,3,4-tetrahydroxychalcone] | 15.10 |
| O=c1cc(-c2ccccc2)oc2ccccc12 [Flavone] | 1.27 |
| COc1ccc2c(c1)c(CC(=O)O)c(C)n2C(=O)c1ccc(Cl)cc1 [Indomethacin] | 2.03 |
| O=c1cc(-c2ccccc2)oc2cc(O)ccc12 [7-OH-flavone, 7-OH-flavone] | 1.92 |
| S=C(S)N1CCCC1 [pyrollidine dithiocarbamate (PDTC), pyrollidine dithiocarbamate] | 1.76 |
| O=c1c(O)c(-c2ccccc2)oc2cc(O)cc(O)c12 [3,5,7-trihydroxy-flavone (galangin), 3,5,7-trihydroxy-flavone] | 1.41 |
| O=c1c(O)c(-c2ccc(O)cc2)oc2cc(O)cc(O)c12 [Kaempherol, 3,4′,5,7-tetrahydroxy-flavone] | 1.49 |
| COc1ccc(-c2coc3cc(O)cc(O)c3c2=O)cc1 [4′-methoxy-5,7-dihydroxyisoflavone] | 2.29 |
| O=c1cc(-c2ccccc2)oc2cc(O)cc(O)c12 [Chrysin, 5,7-dihydroxy-flavone] | 1.35 |
| 7-Bis (4-hydroxy-3-methoxyphenyl)-1,6-heptadiene-3,5-dione [Curcumin] | 17.14 |
| O=c1cc(-c2ccc(O)cc2)oc2cc(O)cc(O)c12 [4′,5,7-trihydroxy-flavone (apigenin), 4′,5,7-trihydroxy-flavone] | 1.58 |
| O=c1cc(-c2ccccc2)oc2cccc(O)c12 [5-OH-flavone] | 9.12 |
| N#CC(C#N)=Cc1ccc([N+](=O)[O-])c(O)c1 [Tyrphostin AG126] | 8.33 |
